Experimental data taken from PMC2631628.
Construct, isoform or probe ends are uncertain for at least one entry. At least one result comes from cells or an extract, where the contact may be indirect. For some assays here: No signal at the amounts used counts as a negative.

Amino acid sequences for entries named in this document (tags omitted). A change or cut given only in a name is not applied to a line headed by its entry.
UniProt P09651: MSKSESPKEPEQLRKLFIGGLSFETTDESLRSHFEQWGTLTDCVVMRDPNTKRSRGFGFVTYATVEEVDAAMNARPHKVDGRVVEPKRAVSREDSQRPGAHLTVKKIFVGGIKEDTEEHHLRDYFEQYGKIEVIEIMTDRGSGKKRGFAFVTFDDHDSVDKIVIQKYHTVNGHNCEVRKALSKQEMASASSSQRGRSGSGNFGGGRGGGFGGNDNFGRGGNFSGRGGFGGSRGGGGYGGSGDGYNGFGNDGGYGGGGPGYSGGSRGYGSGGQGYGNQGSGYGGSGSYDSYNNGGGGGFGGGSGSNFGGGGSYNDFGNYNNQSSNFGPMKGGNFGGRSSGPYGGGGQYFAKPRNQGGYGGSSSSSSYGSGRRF
UniProt P26599: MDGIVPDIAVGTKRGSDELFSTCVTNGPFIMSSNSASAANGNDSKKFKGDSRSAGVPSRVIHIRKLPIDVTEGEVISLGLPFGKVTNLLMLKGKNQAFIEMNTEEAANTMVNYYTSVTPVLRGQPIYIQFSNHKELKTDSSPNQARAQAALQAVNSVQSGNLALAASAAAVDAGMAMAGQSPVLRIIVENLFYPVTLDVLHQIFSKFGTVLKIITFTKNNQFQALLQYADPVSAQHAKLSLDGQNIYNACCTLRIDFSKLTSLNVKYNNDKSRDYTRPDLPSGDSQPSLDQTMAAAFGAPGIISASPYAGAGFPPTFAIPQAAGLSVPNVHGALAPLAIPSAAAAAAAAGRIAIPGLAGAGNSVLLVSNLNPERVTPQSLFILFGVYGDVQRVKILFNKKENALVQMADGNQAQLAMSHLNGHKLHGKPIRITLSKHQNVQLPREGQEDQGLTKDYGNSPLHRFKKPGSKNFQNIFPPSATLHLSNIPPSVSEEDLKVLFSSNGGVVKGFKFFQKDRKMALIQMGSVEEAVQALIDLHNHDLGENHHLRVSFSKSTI
UniProt P14866: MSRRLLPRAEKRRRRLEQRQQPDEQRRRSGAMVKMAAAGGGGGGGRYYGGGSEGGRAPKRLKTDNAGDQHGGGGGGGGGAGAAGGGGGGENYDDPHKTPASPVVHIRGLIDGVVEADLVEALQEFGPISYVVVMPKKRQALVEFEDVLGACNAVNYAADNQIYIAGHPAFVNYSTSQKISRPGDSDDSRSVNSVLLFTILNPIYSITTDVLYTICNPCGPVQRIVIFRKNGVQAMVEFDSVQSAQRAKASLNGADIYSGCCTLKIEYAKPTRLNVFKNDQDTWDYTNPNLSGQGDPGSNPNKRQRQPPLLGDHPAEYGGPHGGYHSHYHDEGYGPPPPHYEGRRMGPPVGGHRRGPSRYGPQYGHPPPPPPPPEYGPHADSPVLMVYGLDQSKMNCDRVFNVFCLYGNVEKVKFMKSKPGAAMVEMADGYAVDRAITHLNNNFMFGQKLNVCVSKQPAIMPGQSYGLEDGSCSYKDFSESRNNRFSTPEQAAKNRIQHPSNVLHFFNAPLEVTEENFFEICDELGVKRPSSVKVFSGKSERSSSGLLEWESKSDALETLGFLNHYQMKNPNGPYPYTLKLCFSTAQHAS

Columns and labels:
Assay in all cases: pull-down
Conditions in all cases: coupled to agarose beads, protein in an extract
[1] = target: hnRNP A1 (HeLa nuclear extract) (human (HeLa)) (UniProt P09651)
[2] = target: PTB (HeLa nuclear extract) (human (HeLa)) (UniProt P26599)
[3] = target: hnRNP L (HeLa nuclear extract) (human (HeLa)) (UniProt P14866)

Row | Sequence | binding result [1] | binding result [2] | binding result [3]
1 | AACGUAGGCGUUAUGAUUUCUGACCUAUGUA [miR-379 loop] | no binding |  | 
2 | AGUGCUGAUGCUGUCUAUUCUAAAGGUACAGUACUG [miR-101-1 loop] | binds | binds | 
3 | GACUGAUGUUGACUGUUGAAUCUCAUGGCAACACCAGUCGA [miR-21 loop] | no binding |  | 
4 | GUUGUAUAGUUUUAGGGUCACACCCACCACUGGGAGAUAACUAUACAAUC [let-7a-1 loop] | binds |  | binds
5 | AAUAUUGGCGUUAAGAUUCUAAAAUUAUCUCCAGUAUUAA [miR-16-1 loop] | no binding |  | 
6 | UUGCACUACAAGAAGAAUGUAGUUGUGCAAAU [miR-19a loop] | no binding |  | 
